The text below walks through data of the supplement of paper PMC12819154, “High-throughput peptide-centric local stability assay extends protein–ligand identification to membrane proteins, tissues and bacteria” (Nature Structural & Molecular Biology, 2025).

By UniProt entry, the sequences of proteins in these tests, tags left out. Where a name states a change or a piece, a line headed by the entry shows the natural chain unless it says otherwise.
UniProt O35457: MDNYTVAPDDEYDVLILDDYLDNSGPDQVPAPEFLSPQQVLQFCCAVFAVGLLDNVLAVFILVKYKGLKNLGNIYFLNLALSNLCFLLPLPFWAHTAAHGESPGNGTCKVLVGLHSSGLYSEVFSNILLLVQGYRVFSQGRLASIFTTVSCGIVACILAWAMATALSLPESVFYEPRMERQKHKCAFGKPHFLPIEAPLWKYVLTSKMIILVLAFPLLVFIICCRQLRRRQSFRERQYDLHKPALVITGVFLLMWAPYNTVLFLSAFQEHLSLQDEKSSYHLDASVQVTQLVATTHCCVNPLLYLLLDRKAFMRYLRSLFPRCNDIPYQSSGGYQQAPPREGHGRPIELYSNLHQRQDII
UniProt E9Q4P1: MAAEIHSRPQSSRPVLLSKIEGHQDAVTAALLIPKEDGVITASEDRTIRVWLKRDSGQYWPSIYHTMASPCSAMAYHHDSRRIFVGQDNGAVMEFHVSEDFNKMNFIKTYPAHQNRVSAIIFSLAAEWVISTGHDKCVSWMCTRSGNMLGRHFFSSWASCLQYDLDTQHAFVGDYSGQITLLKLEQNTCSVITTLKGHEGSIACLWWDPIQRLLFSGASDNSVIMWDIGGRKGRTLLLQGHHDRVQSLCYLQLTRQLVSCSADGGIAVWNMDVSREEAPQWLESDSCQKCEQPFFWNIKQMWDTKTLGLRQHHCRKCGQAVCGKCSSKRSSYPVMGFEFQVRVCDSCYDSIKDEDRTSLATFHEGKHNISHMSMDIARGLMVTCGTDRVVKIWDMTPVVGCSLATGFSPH
UniProt O08967: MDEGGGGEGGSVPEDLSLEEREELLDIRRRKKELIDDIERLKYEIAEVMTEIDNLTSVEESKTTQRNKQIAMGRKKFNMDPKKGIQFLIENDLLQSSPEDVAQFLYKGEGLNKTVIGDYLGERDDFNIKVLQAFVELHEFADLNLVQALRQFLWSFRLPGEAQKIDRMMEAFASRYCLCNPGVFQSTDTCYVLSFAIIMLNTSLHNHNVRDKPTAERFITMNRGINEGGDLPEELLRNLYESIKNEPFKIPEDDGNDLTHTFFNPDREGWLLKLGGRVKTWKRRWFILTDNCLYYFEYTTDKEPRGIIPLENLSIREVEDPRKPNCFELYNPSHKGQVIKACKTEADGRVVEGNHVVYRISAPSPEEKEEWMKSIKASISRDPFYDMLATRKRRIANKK
UniProt E2JF22: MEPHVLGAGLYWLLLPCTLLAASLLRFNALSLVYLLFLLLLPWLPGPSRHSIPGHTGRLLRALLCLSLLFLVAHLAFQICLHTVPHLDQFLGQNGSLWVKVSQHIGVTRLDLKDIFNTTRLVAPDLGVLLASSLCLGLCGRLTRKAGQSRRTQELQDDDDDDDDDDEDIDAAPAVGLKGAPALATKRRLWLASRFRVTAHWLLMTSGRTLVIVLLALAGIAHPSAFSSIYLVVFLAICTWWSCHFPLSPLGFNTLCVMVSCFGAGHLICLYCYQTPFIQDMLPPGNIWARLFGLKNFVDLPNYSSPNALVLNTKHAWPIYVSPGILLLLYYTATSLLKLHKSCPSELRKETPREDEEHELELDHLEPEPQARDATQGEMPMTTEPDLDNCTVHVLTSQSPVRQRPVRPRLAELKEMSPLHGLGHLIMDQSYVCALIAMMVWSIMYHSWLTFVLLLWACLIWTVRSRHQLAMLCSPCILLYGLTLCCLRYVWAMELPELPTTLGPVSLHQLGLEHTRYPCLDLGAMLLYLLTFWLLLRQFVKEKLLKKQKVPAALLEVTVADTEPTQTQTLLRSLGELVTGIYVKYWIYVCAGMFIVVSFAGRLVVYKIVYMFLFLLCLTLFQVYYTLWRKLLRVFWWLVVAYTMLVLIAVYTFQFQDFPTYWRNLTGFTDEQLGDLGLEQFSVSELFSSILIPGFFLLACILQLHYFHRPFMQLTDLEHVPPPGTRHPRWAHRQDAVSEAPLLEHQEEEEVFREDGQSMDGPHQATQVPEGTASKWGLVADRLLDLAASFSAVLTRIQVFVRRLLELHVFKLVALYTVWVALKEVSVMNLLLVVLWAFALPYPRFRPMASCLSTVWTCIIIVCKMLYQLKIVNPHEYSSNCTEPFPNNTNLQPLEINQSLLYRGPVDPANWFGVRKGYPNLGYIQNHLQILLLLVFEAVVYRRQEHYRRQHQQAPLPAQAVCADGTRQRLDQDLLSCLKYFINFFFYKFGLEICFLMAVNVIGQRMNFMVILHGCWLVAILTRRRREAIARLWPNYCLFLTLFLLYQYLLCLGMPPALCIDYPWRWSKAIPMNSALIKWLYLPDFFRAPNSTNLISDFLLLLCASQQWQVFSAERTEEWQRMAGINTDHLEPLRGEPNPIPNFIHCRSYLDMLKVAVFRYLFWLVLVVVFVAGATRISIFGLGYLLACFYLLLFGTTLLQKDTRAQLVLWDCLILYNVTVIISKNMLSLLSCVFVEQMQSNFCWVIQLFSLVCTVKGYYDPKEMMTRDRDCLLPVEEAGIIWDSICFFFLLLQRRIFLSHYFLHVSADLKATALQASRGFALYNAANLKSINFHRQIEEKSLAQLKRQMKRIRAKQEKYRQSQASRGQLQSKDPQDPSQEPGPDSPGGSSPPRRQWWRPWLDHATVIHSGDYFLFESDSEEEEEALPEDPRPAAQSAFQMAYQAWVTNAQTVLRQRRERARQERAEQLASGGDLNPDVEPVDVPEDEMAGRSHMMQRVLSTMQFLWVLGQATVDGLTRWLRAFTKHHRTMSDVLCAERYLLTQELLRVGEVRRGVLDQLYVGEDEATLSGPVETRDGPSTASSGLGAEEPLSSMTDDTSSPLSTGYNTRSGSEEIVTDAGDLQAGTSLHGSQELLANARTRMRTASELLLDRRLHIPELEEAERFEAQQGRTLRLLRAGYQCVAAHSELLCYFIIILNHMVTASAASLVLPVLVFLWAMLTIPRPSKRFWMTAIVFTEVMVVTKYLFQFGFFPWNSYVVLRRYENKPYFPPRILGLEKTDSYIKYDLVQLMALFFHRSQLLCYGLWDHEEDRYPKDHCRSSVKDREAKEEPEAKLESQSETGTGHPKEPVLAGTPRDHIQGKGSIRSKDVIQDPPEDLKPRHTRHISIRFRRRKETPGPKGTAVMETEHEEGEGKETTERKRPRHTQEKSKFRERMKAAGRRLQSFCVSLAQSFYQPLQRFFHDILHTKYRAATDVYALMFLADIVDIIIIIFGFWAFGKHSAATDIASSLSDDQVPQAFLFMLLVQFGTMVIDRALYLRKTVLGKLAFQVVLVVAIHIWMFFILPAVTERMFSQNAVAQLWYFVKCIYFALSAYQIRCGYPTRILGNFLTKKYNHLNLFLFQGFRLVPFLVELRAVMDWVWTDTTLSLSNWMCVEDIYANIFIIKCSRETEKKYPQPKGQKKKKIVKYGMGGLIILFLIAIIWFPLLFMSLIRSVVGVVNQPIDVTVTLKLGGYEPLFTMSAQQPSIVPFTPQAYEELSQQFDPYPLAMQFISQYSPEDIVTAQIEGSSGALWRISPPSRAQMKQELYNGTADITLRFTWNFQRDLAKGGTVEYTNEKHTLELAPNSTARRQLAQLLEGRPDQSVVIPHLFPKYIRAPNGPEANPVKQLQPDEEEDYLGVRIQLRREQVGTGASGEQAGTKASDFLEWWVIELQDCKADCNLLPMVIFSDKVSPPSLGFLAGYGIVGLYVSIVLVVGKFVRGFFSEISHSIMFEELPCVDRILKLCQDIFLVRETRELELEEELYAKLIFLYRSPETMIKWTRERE

Some of the results follow. Most entries show no effect beyond the scatter of the controls.

Compound in this experiment: CN[C@@H]1C[C@H]2O[C@@](C)([C@@H]1OC)n1c3ccccc3c3c4c(c5c6ccccc6n2c5c31)C(=O)NC4 [staurosporine]
In words: log2 fold change of tryptic peptide abundance, ligand vs vehicle (limited proteolysis) (log2 ratio); higher = more trypsin-susceptible (destabilized). Conditions: ligand concentration: 20 uM; sample: mouse liver crude lysate; replicate design: treated separately.
Regarding “UniProt O08553 (peptide sequence: IVLEDGTLHVTEGSGR, peptide start residue: 452)”, the log2 fold change came to 0.136.

As to “UniProt O35457 (peptide sequence: EGHGRPIELYSNLHQR, peptide start residue: 341)”, the log2 fold change came to 0.0553.

In the case of “UniProt E9Q4P1 (peptide sequence: VCDSCYDSIKDEDR, peptide start residue: 343)”, the log2 fold change is -0.152.

For the target “UniProt O08967 (peptide sequence: GIIPLENLSIR, peptide start residue: 303)”, the log2 fold change came to 0.0694.

“UniProt E2JF22 (peptide sequence: SKDVIQDPPEDLKPR, peptide start residue: 1867)”: the log2 fold change was -0.12.
